# Results of single-concentration screens

Protein sequences, listed by entry. Tags and fused reporters are not part of them. Residues count along the entry.
UniProt Q8IDJ8, 1-583: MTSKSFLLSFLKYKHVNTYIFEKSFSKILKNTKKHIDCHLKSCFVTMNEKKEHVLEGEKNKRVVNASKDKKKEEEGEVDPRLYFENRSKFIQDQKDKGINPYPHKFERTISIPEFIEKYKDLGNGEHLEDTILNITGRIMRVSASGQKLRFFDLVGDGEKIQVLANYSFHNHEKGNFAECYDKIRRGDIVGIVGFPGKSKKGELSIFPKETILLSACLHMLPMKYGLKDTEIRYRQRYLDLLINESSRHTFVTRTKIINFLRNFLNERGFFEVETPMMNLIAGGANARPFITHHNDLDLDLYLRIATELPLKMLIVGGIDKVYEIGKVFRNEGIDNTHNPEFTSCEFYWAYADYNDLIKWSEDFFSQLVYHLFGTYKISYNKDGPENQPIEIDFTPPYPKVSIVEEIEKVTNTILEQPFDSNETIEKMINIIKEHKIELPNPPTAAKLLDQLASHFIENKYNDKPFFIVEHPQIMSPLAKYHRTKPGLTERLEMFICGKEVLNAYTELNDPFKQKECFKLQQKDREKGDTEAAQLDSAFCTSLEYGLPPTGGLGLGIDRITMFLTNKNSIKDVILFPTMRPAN
UniProt I6X8D2, whole entry: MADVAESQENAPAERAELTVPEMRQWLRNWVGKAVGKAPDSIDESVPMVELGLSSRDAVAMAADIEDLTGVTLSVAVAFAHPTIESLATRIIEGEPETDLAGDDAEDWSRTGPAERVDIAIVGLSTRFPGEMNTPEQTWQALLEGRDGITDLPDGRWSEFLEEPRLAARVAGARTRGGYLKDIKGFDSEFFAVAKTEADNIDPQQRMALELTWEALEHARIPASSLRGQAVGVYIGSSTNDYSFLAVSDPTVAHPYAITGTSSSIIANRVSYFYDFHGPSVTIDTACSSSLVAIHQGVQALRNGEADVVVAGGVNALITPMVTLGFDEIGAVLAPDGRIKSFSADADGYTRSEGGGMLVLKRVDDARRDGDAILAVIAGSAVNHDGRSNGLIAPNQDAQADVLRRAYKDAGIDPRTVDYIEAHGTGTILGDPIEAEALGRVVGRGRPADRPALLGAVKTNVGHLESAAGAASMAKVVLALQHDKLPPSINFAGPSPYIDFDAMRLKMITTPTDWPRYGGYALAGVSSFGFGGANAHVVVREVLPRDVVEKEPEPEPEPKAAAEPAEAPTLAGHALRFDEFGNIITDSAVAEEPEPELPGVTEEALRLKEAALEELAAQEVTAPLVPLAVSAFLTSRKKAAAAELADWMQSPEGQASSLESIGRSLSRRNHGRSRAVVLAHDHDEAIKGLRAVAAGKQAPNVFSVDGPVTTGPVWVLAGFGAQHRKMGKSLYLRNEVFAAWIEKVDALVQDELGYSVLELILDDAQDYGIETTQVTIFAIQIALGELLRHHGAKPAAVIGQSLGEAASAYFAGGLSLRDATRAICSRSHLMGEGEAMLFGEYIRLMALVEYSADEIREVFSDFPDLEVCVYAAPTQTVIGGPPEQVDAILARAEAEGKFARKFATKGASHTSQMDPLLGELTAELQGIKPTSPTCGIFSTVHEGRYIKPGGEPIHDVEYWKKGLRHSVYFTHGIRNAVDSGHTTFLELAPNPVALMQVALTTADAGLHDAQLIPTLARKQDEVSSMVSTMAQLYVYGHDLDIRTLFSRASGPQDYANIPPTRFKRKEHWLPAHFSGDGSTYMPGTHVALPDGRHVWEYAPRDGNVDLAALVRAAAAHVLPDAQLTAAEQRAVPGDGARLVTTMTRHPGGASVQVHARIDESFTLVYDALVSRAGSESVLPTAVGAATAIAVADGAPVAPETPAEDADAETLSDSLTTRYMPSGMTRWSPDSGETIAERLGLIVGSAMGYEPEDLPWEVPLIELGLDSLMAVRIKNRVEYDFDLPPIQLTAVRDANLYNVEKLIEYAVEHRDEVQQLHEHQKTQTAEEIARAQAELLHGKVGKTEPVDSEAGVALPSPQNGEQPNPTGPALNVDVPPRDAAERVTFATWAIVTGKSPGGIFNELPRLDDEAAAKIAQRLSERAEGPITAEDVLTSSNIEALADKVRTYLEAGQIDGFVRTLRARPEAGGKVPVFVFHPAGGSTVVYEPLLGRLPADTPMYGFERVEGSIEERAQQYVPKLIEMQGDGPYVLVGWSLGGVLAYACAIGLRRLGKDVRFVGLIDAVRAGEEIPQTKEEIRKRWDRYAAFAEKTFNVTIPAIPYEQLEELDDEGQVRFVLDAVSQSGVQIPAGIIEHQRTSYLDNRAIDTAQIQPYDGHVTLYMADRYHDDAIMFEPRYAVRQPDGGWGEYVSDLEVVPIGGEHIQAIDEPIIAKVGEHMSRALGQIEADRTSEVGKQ
UniProt P9WNZ1, whole entry: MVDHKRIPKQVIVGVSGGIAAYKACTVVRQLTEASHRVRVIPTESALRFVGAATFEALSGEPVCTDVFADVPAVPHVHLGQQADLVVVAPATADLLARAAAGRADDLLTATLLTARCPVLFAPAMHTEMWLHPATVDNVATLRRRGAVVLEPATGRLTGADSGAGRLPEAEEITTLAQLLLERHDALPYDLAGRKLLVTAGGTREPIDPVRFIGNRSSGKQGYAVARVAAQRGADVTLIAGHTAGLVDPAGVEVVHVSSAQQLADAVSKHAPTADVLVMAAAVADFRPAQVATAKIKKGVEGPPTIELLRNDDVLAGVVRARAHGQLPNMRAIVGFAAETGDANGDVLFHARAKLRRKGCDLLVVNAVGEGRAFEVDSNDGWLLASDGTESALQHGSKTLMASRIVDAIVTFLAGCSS
UniProt Q4DA54, 1-478: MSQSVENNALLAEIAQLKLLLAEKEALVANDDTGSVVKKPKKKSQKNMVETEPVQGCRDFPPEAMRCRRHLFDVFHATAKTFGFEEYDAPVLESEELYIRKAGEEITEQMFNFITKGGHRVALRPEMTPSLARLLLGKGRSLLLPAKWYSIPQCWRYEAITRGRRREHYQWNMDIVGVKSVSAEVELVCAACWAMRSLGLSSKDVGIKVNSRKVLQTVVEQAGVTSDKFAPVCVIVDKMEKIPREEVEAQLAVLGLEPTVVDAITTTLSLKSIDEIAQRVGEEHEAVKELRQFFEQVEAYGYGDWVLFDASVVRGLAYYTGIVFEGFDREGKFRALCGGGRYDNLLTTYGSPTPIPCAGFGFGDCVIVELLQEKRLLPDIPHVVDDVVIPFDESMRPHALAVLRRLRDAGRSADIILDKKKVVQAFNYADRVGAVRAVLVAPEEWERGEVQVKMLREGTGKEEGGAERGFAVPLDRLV
UniProt P9WFT3, whole entry: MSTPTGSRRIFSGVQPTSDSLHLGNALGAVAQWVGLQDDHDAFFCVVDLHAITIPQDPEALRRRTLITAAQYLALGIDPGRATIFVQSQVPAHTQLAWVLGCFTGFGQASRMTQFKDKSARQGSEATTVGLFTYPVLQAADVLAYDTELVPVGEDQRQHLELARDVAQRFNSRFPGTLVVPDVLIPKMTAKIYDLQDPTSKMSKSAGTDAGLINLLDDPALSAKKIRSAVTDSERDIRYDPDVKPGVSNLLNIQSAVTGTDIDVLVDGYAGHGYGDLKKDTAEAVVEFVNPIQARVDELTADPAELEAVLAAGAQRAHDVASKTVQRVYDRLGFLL
UniProt P9WPC5, whole entry: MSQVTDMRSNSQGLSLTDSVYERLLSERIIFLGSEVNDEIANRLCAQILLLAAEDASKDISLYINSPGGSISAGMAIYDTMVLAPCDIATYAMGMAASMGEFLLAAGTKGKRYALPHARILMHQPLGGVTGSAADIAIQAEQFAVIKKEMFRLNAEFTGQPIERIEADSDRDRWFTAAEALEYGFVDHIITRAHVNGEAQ
UniProt P9WPC3, whole entry partner: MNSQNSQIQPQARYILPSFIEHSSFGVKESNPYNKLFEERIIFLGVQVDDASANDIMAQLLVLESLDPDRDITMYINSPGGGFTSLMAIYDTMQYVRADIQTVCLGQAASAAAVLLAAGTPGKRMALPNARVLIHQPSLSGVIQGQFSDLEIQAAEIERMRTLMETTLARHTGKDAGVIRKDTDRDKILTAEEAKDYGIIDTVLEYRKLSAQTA

Data taken from ChEMBL document CHEMBL3988442, “University of Dundee, Small-Polar-MMV Screening Library” (2021).

A: 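Lysine-tRNA ligase, Plasmodium falciparum 3D7 (UniProt Q8IDJ8). Enzyme assay of the cytosolic lysyl-tRNA synthetase in 384-well plates, read by luminescence. Compounds at 30 µM. Direction is inferred from only a few compounds that gave an IC50; most scored high, so higher reads as stronger inhibition. Of about 69,000 compounds tested this way, about 49 (0.071%) reached 50% or more in at least one test.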
B: 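Enzyme assay of the thioesterase domain of polyketide synthase 13; the read-out is not stated. Target: Polyketide synthase Pks13, Mycobacterium tuberculosis (UniProt I6X8D2). Concentration: 30 µM. Higher reads as stronger inhibition (inferred from which compounds were picked for retests). Of about 67,000 compounds tested this way, about 300 (0.46%) reached 50% or more in at least one test.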
C: 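Coenzyme A biosynthesis protein CoaBC, Mycobacterium tuberculosis (UniProt P9WNZ1). Enzyme assay of CoaBC with a phosphate dye (Biomol Green) read at 650 nm. Tested at 30 µM. Higher reads as stronger inhibition, judged from the few compounds that gave an IC50. Most strong results did not repeat in a second test. Of about 67,000 compounds tested this way, about 40 (0.06%) reached 50% or more in at least one test.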
D: 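Histidine-tRNA ligase, Trypanosoma cruzi CL Brener (UniProt Q4DA54). Enzyme assay of histidyl-tRNA synthetase; the read-out is not stated. Concentration: 30 µM. The record gives no direction; compounds that gave an IC50 in retests scored well above the rest, so higher reads as stronger inhibition. About 69,000 compounds were tested under these conditions; 0.045% (about 31) showed 50% or more at least once.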
E: 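Tryptophan-tRNA ligase, Mycobacterium tuberculosis (UniProt P9WFT3). Enzyme assay of tryptophanyl-tRNA synthetase; the read-out is not stated. Compounds at 10 µM. Direction is not recorded; retested compounds ran higher, which suggests that high means inhibition. Of about 65,000 compounds tested this way, about 64 (0.098%) reached 50% or more in at least one test.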
F: 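ClpP1P2, Mycobacterium tuberculosis (UniProt P9WPC5 and UniProt P9WPC3). Protease assay of ClpP1P2, read by the AMC dye that it sets free. Compounds at 50 µM. Higher reads as stronger inhibition, judged from the few compounds that gave an IC50. Most other retested compounds had strongly negative values. Size under these conditions: about 69,000 compounds, about 10 of them at 50% or above in at least one test.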

Results are given as percent effect. The record does not define 0% and 100%; most values in the screen are far below 50% and negative numbers occur (in some assays of this library far below -100). Compounds were drawn at random from those tested, without regard to their results.

* O=C(NCc1cn2c(n1)CN(Cc1nccs1)CC2)C1CCC1 | A: 6.962%; C: 5.863%; D: 7.843%; E: 3.255%; F: -5.515%
* COc1c(CNCCc2c[nH]c3ccccc23)c(C)nn1C | A: -2.3%; B: -7.402%; C: -1.01%; D: 6.061%; E: 1.548%; F: 10.03%
* Cc1nc[nH]c1-c1nccn1CCN1CCOC1=O | A: 0.8292%; B: 1.308%; C: 1.456%; D: 11.88%; E: 1.44%; F: -2.866%
* Cc1ncoc1C(=O)N1CCCC(C(=O)c2cccc(OC(C)C)c2)C1 (stereo unspecified) | A: -5.02%; B: 15.79%; C: 1.474%; D: 0.8333%; E: -3.957%; F: -13.83%
* CN(CCCNC(=O)NCc1ccncc1)CC(F)(F)F | A: 0.5206%; B: 5.605%; C: -1.467%; D: 4.124%; E: 0.5482%; F: -6.163%
* CCc1nc(C2CCCN(C(=O)c3c[nH]c(C(C)C)n3)C2)no1 (stereo unspecified) | A: 0%; C: -4.512%; D: -0.6024%; E: 2.384%; F: 1.48%
* CCN1CCCC(CNC(=O)C2(c3cccc(Cl)c3)CC2)C1 (stereo unspecified) | A: -0.04839%; B: -8.229%; C: 2.872%; D: -0.3759%; E: -3.606%; F: 5.754%
* CN(Cc1nccn1C)c1ccc(-c2nccn2C)nn1 | A: -1.602%; B: 32.31%; C: -0.4878%; D: 0%; E: 7.98%; F: -1.186%
* CN1CC(=O)N(c2cnn(C)c2)CC12CCN(Cc1ccccc1)C2 (stereo unspecified) | A: -0.05717%; B: -14.95%; C: -1.935%; D: 4.959%; E: 0.7401%; F: 0.9724%
* CCC(NC(=O)NCc1cccc(N(C)C)n1)c1cccs1 (stereo unspecified) | A: 3.493%; B: -1.647%; C: 6.203%; D: 9.938%; E: 1.085%; F: -15.4%
* Cc1ccc(-c2nc(C(=O)N(C)CC(=O)N(C)C)cs2)c(C)c1 | A: -1.386%; B: 17.28%; C: 5.528%; D: 10.71%; E: 8.456%; F: -9.599%
* CC(CN1CCCCCC1)NCc1cc(-c2ccco2)on1 (stereo unspecified) | A: 1.334%; B: -16.61%; C: 13.64%; D: 10.4%; E: -1.127%; F: -9.307%
* O=C(Cc1cccc(F)c1)N1C[C@H]2CN(Cc3ccccn3)C[C@H]2C1 | A: 2.069%; B: -22.81%; C: 0.9009%; D: 5.825%; E: 0.5814%; F: 3.884%
* Cn1cc(NS(=O)(=O)c2ccc(OC(F)(F)F)cc2)ccc1=O | A: 31.39%; B: -10.1%; C: 0%; D: 6.015%; E: 0.5508%; F: 6.074%
* COC(=O)c1ccc(N2CCN(C(=O)c3cc(C)on3)C(C)C2)cc1 (stereo unspecified) | A: 12.24%; B: -28.43%; C: -1.285%; D: 3.759%; E: 0.3934%; F: 4.654%
* CCc1nc(C)c([C@H]2CN(C)C[C@@H]2C(=O)NCCc2cnccn2)[nH]1 | A: 1.295%; B: -11.59%; C: -3.198%; D: 3.333%; E: -0.387%; F: -9.959%
* Cc1n[nH]c(C)c1CNC(=O)c1cn(CCC2CCCCN2)nn1 (stereo unspecified) | A: 2.558%; B: 1.235%; C: -1.071%; D: 7.955%; E: -4.669%; F: -9.213%
* Cc1nccc(-c2cccc(NCC(=O)N3CCCCCCC3)c2)n1 | A: -0.02394%; B: -15.43%; C: 3.506%; D: 9.848%; E: -0.2924%; F: 1.905%
* CCCNC(=O)c1ccc(NC(=O)NC(C)c2ccccn2)cc1 (stereo unspecified) | A: 0.865%; B: -13.99%; C: 1.827%; D: 10.12%; E: -1.718%; F: -2.589%
* COC(=O)c1sc2cccc(F)c2c1CNC(=O)C1CCOC1 (stereo unspecified) | A: 3.695%; B: 68.18%; C: 9.339%; D: 0%; E: -1.709%; F: 2.333%
* Cc1csc(N2CCN(CC(=O)NC3CCOCC3)CC2C)n1 (stereo unspecified) | A: 2.465%; B: -4.481%; C: -3.611%; D: -7.289%; E: 0.8708%; F: -19.13%
* Cn1cc(CN2CCC3(CC2)CC(c2ccncc2)C(=O)N3)cn1 (stereo unspecified) | A: 6.032%; B: -9.369%; C: 1.416%; D: 6.011%; E: 4.314%; F: 1.976%
* O=C1CCCN1Cc1nnc2n1CCCN(Cc1ccco1)C2 | A: 1.638%; B: 7.606%; C: 0.7317%; D: 0%; F: -3.05%